Read-outs that look alike come from different tables or passages of the source. The match of structure and compound is tentative.
Experiments:
IRAK4 = IRAK4 (Homo sapiens (Human), UniProt Q9NWZ3); experiment: IRAK-4 biochemical kinase assay, AlphaScreen format; conditions: read-out: Biochemical IRAK4 IC50
A549 cells = experiment: Cell-based assay, IL-6 ELISA quantification in IL-1 beta stimulated A549 cells; conditions: read-out: Celluar Data EC50, 2 ng/ml human IL-1 beta overnight, class symbols

Chains of the proteins cited; added tags and fusions are not shown.
UniProt Q9NWZ3, whole entry: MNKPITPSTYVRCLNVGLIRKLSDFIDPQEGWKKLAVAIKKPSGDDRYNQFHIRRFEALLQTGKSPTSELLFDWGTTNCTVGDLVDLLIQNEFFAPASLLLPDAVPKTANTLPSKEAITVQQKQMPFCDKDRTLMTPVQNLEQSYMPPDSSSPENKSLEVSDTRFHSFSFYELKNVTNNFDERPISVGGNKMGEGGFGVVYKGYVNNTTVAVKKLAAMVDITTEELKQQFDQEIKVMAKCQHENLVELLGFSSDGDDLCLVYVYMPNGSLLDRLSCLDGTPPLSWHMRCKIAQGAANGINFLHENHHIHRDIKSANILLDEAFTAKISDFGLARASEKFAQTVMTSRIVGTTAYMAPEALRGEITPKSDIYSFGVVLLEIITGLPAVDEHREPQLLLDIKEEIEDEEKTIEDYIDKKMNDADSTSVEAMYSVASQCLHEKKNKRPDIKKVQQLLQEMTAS

Compound	IC50 (IRAK4; 1 nM IRAK4, 1.6 μM peptide, 10 μM ATP, 3.5 h at RT, class symbols)	EC50 (A549 cells)	IC50 (IRAK4)
O=C1Nc2cn(CCCO)nc2C(=O)NCCOCCOc2cc(ccn2)-c2nc1cs2 [Example 152]	< 1 µM	> 10 µM	–
CN1CCC(Cn2cc3c(n2)C(=O)NCCOCCOc2cc(ccn2)-c2nc(cs2)C(=O)N3)CC1 [Example 158]	–	> 10 µM	< 0.1 µM
